Experimental data taken from paper PMC1852116.

Molecular target: T1, Bright (177-601) (UniProt Q62431)
T1 sequence (looked up): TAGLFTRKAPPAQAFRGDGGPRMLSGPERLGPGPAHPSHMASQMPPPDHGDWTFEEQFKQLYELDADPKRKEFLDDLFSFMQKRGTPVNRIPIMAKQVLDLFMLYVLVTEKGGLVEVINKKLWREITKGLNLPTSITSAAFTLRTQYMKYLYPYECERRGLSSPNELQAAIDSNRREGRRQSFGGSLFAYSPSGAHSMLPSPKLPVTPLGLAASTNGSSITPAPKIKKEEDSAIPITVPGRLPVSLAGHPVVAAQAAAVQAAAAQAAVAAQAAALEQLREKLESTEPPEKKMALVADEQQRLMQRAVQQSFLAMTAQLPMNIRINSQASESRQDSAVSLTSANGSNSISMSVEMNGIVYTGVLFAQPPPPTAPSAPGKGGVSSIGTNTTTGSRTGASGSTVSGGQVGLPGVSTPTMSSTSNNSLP
Experiment: competition with a labelled probe
Conditions: ~150-fold molar excess of unlabelled P2 oligo against 5' Emu MAR probe; EMSA: ~2 ug nuclear extract or ~20 ng Bright (177-601), ~80,000 cpm probe, 20 min at room temperature, 4% polyacrylamide gel; salt and pH not given (refs 21, 66); recombinant protein; residues 177-601; protein details: N-terminal 6xHis

CTTTTAACAATAATAAATTAAGTTTAAAATATTTTT (double strand) [P2 site duplex oligonucleotide (wild type)]
binding result: binds

The exact form of at least one protein or probe is not confirmed. At least one verdict rests on a figure or table, not on a statement of the authors. Tags and fusion partners may be left off the protein sequences shown.
